Experimental data: PubChem BioAssay AID504444 (National Center for Advancing Translational Sciences (NCATS), 2011)
The whole screen tested about 360,000 compounds, of which about 7,500 (2.1%) were called active. The inconclusive results got no clear call from the source; some entries with a clear call stand among them for comparison. Calls follow the shape of the dose curve; as a rule, active = well fitted inhibition curve with a large enough effect; inconclusive = small, poorly fitted or top-dose-only effect, or effect the other way; inactive = flat fitted curve, though single readings scatter. Where the call is inconclusive, the potency comes from a doubtful curve fit.

test: Nrf2 qHTS screen for inhibitors; conditions: A549 ARE-Fluc reporter, luciferase luminescence, 18-24 h; series mostly up to 46 µM; also: nearly all actives have a fitted effect of over 60% in size
In short: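 Quantitative HTS in A549 cells stably bearing an antioxidant response element-firefly luciferase construct. Inhibition of Nrf2-driven transcription was scored by luminescence after 18-24 h of compound exposure at 37 °C.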
Potency is read from the fitted curve at half-maximal effect.

Compound | Potency
COc1ccc(N2CCN(C(=O)NCc3ccc(OC)c(OC)c3)CC2)cc1 | inconclusive: 29.1 µM [falling, single point]
COc1ccc(OC)c(N=C2C(=O)Nc3ccccc32)c1 | inconclusive: 4.11 µM [falling, full curve, poor fit]
CCOc1ccc(NC(=O)c2ccc(Cn3nc(C)cc3C)o2)cc1 | inconclusive: 29.1 µM [falling, single point]
Cc1ccc(NC(=O)Cn2cc(C(=O)C3CCCCC3)c3ccccc32)cc1 | inconclusive: 23.1 µM [falling, single point]
CCOc1ccc(-c2cc(CCCC(=O)NCCc3cc(OC)c(OC)c(OC)c3)no2)cc1 | active: 14.6 µM
COc1ccc2c(c1)c(/C=N/Nc1nc3ccccc3[nH]1)c(C)n2C | inconclusive: 18.4 µM [falling, single point]
CCOc1ccc(NC(=O)Cn2c(=O)n(CCCS(=O)(=O)C3CCCCC3)c(=O)c3ccccc32)cc1 | inactive
Nc1ccc(O)c([N+](=O)[O-])c1 | inconclusive: 16.4 µM [activator, partial curve, poor fit]
CCNc1c(NS(=O)(=O)c2ccc(OC)cc2)c(=O)oc2ccccc12 | inconclusive: 32.6 µM [falling, partial curve, poor fit]
CC(=O)/C=C/c1ccc2ccccc2n1 | inconclusive: 10.3 µM [falling, partial curve]
CCOc1cc(/C=C2\SC(=S)N(NS(=O)(=O)c3ccccc3)C2=O)ccc1O | inconclusive: 18.4 µM [falling, single point]
Cc1c(C#N)c2ccccc2n1CCOc1ccccc1F | active: 23.1 µM
Cc1cc(O)ccc1N/C=C/c1onc(C)c1[N+](=O)[O-] | inconclusive: 18.4 µM [activator, partial curve]
CCOC(=O)c1nn(-c2cccc(OC)c2)c(-c2ccccc2)c1C(=O)c1ccccc1 | inconclusive: 29.1 µM [falling, single point]
COc1cc2c(cc1OC)C1(Nc3c-2c(C)nn3-c2ccccc2)C(=O)Nc2ccccc21 (stereo not given) | inactive
Nc1ccc(Oc2ccc3c(c2)C(=O)NC3=O)cc1 | inconclusive: 6.51 µM [activator, single point]
CCN(CC)S(=O)(=O)c1cccc(NC(=O)C2SC(=Nc3ccc(C)cc3C)C(C(=O)NCC3CCCO3)=C2N)c1 (stereo not given) | inconclusive: 29.1 µM [falling, single point]
C=CC[C@@H](CC(=O)N(CCO)Cc1ccccc1)C(=O)N[C@H](COC(=O)[C@@H](CC=C)CC(=O)OC(C)(C)C)c1ccccc1 | inconclusive: 20.6 µM [falling, partial curve]
COc1ccc(CC(=O)Nc2cc(S(=O)(=O)N3CCCCC3)ccc2C)cc1OC | active: 4.11 µM
O=C(CN1CCN(c2ccc(F)cc2)CC1)NCc1ccc(Cl)cc1 | inconclusive: 3.66 µM [activator, single point]

Compound | Potency
CSc1ccc(S(=O)(=O)N2CCC(C(=O)NCc3cccnc3)CC2)cc1 | inconclusive: 29.1 µM [falling, single point]
Cc1cc[n+](CC(=O)Nc2cc(C(F)(F)F)ccc2Cl)cc1 | inconclusive: 6.51 µM [falling, single point]
Cc1ccc(-c2csc(NC(=O)c3ccc([N+](=O)[O-])o3)n2)cc1 | inconclusive: 29.1 µM [falling, single point]
Cc1cccc(N2CCN(c3ncnc4c3nc3n4CCCCC3)CC2C)c1 (stereo not given) | active: 18.4 µM
Cc1cc(Br)cc(C=Nc2ccc(N3CCOCC3)cc2)c1O | inconclusive: 29.1 µM [activator, single point]
COc1ccccc1CNC(=O)c1c(-c2ccccc2Cl)noc1C | inconclusive: 16.4 µM [falling, partial curve, poor fit]
CCn1ncc(Br)c1C(=O)Nc1ccc2c(c1)OCCO2 | inconclusive: 20.6 µM [activator, single point]
CCn1cc(-c2cc(C(=O)O)c3ccccc3n2)cn1 | active: 18.4 µM
O=C(O)CCC(=O)OCCN(Cc1ccc(Oc2ccc([N+](=O)[O-])cc2)cc1)C(=O)C(Cl)Cl | inconclusive: 16.4 µM [falling, single point]
CC1=CC(C)(C)Nc2ccc(OC(=O)c3cccnc3)cc21 | inconclusive: 4.61 µM [falling, full curve, poor fit]
C(=N\NC1=Nc2cccc3cccc1c23)/c1ccccc1 | inconclusive: 4.61 µM [activator, partial curve]
COc1ccc2c(c1)[nH]c1c(=O)n(/N=C/C3C(C)C=C(C)CC3C)c(=O)[nH]c12 (stereo not given) | inconclusive: 25.9 µM [falling, single point]
O=C1Nc2ccccc2OC1CC(=O)N1CCN(c2cccc(C(F)(F)F)c2)CC1 (stereo not given) | inconclusive: 16.4 µM [falling, single point]
Cc1ccc(C)c(-n2nnc(-c3nc(-c4ccccc4C)no3)c2C)c1 | inconclusive: 6.51 µM [activator, single point]
O=[N+]([O-])c1ccc(Cl)c(S(=O)(=O)Nc2cccc(S(=O)(=O)NC3=NCCC3)c2)c1 | inactive
Cc1cc(=O)nc2c3ccccc3n(CC(=O)NCCCN3CCOCC3)n12 | inconclusive: 8.2 µM [activator, partial curve]
COc1ccc(-c2nn(-c3ccc(C)cc3)c3c2cnc2ccc(C)cc23)cc1OC | inconclusive: 9.2 µM [activator, partial curve, poor fit]
CCOCc1[nH]c(=S)[nH]c(=O)c1Cc1ccc(OCC(C)C)cc1 | inconclusive: 20.6 µM [falling, partial curve, poor fit]
Cc1cc(=O)n(CC(=O)NC(C)c2ccccc2)c2c1c(C)nn2-c1cccc(F)c1 (stereo not given) | inconclusive: 25.9 µM [activator, single point]
Cc1nn(-c2ccccc2)c(C)c1C(=O)OCC(=O)N1c2ccccc2NC(=O)C1(C)C | inconclusive: 32.6 µM [falling, single point]

Structural class: those above containing a COOH group (two)
Compound | Potency
CCn1cc(-c2cc(C(=O)O)c3ccccc3n2)cn1 | active: 18.4 µM
O=C(O)CCC(=O)OCCN(Cc1ccc(Oc2ccc([N+](=O)[O-])cc2)cc1)C(=O)C(Cl)Cl | inconclusive: 16.4 µM [falling, single point]

2 compounds drawn at random from the list so far:
Compound | Potency
Cc1cc(Br)cc(C=Nc2ccc(N3CCOCC3)cc2)c1O | inconclusive: 29.1 µM [activator, single point]
Cc1cc(=O)nc2c3ccccc3n(CC(=O)NCCCN3CCOCC3)n12 | inconclusive: 8.2 µM [activator, partial curve]
